Measured values published in article PMC6868278.
Like-named read-outs stand apart in the source and are kept apart here. Results are given in words; binding and its absence hold for the method and conditions named. In cells and extracts the contact can be indirect. A yes stands for co-enrichment or nearness to the bait. Other partners may have been found.

By UniProt entry, the sequences of proteins in these tests, tags left out. Where a name states a change or a piece, a line headed by the entry shows the natural chain unless it says otherwise.
UniProt P05556: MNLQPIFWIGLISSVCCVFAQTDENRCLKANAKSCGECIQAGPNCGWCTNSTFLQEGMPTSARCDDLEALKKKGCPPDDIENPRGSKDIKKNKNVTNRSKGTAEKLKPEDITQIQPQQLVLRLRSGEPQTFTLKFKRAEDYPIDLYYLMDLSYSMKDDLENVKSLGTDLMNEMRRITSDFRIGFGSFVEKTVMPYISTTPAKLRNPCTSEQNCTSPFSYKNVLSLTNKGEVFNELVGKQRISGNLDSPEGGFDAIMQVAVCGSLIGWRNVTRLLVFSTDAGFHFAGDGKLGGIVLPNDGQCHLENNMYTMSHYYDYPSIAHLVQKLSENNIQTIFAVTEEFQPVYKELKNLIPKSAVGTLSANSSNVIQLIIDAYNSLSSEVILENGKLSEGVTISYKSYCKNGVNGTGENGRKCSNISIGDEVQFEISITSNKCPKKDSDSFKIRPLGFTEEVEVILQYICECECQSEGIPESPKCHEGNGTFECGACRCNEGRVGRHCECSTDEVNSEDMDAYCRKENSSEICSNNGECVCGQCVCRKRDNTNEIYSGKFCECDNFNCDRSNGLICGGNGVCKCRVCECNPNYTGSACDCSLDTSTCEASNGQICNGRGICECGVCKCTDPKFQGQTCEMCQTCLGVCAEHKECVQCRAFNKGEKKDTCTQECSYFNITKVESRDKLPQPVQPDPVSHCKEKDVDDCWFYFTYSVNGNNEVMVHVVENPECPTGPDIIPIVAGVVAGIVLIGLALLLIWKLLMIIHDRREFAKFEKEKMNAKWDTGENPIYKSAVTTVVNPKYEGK
UniProt O95425: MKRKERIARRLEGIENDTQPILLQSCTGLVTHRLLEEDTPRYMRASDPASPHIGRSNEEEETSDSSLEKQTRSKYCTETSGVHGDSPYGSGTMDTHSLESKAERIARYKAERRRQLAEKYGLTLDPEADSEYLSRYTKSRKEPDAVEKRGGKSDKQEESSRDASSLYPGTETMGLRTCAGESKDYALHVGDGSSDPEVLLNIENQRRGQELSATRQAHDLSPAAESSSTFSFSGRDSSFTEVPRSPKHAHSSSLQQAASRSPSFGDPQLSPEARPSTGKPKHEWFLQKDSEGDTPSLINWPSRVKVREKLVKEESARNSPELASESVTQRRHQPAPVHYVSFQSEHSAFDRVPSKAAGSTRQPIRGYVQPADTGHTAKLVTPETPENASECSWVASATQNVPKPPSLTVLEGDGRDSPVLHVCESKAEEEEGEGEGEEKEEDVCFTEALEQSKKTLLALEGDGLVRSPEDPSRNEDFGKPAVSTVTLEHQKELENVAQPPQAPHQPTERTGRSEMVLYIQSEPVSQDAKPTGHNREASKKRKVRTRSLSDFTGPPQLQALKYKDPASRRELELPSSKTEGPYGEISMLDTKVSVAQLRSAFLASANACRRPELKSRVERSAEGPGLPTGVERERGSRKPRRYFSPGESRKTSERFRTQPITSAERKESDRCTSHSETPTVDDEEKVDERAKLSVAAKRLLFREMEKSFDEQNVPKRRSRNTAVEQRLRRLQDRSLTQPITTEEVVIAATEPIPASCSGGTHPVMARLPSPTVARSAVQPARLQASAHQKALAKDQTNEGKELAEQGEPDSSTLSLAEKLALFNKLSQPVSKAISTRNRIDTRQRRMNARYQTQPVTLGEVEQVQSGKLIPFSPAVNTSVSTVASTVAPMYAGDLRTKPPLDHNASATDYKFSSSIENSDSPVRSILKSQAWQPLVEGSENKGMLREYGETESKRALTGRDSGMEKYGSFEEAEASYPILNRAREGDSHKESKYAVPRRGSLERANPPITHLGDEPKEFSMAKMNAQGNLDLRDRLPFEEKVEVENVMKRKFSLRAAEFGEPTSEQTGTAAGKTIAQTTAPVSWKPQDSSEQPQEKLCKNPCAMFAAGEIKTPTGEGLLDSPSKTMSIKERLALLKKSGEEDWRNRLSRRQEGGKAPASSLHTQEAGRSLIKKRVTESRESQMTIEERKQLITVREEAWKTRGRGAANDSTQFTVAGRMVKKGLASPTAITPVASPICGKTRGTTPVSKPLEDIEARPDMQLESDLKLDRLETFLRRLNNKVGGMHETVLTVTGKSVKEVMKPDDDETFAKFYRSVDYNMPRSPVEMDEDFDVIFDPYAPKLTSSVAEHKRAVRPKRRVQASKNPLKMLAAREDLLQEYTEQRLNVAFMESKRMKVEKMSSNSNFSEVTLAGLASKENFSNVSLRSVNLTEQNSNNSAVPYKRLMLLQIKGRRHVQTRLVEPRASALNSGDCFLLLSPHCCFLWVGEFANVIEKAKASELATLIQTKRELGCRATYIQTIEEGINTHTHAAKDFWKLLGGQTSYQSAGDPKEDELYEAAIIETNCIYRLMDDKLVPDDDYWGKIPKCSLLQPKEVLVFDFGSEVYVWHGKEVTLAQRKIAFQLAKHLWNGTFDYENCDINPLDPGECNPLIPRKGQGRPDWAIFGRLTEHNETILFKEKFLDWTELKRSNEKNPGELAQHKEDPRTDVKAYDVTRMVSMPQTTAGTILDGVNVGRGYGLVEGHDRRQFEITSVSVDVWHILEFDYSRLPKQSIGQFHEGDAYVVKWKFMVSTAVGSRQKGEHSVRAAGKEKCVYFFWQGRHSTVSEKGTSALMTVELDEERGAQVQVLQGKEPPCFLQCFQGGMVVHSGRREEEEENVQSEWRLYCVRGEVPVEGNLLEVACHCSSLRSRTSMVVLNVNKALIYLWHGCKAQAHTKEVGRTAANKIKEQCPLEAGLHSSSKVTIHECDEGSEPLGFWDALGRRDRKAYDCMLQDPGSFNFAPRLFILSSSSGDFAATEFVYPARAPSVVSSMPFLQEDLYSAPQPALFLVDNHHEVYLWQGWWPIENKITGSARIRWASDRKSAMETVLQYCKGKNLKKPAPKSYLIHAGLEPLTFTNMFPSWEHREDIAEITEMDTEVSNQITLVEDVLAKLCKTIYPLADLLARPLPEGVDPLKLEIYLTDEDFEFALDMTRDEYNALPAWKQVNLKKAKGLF
UniProt Q9UHB6: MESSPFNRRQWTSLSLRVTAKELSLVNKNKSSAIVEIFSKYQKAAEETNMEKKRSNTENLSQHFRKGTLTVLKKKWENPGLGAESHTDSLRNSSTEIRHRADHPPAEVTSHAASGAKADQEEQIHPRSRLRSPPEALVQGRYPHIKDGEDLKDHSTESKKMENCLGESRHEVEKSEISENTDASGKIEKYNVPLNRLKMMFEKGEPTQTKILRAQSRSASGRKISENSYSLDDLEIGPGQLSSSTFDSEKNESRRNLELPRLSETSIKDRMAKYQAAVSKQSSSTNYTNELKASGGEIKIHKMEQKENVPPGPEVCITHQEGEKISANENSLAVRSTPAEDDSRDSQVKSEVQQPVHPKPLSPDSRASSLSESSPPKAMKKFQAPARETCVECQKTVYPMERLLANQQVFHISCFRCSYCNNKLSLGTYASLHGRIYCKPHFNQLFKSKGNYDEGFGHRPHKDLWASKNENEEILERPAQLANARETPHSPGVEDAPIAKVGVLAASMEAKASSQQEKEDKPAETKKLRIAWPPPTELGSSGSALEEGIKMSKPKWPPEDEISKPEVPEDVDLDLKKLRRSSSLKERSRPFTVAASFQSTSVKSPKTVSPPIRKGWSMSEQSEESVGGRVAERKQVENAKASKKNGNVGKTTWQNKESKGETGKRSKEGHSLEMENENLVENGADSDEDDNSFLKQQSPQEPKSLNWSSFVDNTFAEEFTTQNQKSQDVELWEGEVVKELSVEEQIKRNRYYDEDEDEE

Experiments:
[1] = target: Yes-associated protein (YAP) (human (endogenous in MCF10A)) (UniProt P46937); assay: affinity purification with mass spectrometry; endogenous YAP immunoprecipitated (anti-YAP on Dynabeads) from MCF10A cells crosslinked with 5 mM DTSSP while sparsely or densely plated on 2D tissue culture plastic; bound fraction by SDS-PAGE and UPLC-MS/MS; common contaminants excluded
[2] = target: Yes-associated protein (YAP) (human (endogenous in MCF10A)) (UniProt P46937); assay: as above; remark: listed apart in the source

Molecule: β1 integrin (from UniProt P05556 21-798) (receptor)
- binding [1]: binds

Molecule: supervillin (from UniProt O95425 1-2214)
- binding [1]: binds

Molecule: LIMA1 (from UniProt Q9UHB6 1-759)
- binding [1]: binds

B1: ODP2 (protein, UniProt P10515 87-647)
chain: SLPPHQKVPLPSLSPTMQAGTIARWEKKEGDKINEGDLIAEVETDKATVGFESLEECYMAKILVAEGTRDVPIGAIICITVGKPEDIEAFKNYTLDSSAAPTPQAAPAPTPAATASPPTPSAQAPGSSYPPHMQVLLPALSPTMTMGTVQRWEKKVGEKLSEGDLLAEIETDKATIGFEVQEEGYLAKILVPEGTRDVPLGTPLCIIVEKEADISAFADYRPTEVTDLKPQVPPPTPPPVAAVPPTPQPLAPTPSAPCPATPAGPKGRVFVSPLAKKLAVEKGIDLTQVKGTGPDGRITKKDIDSFVPSKVAPAPAAVVPPTGPGMAPVPTGVFTDIPISNIRRVIAQRLMQSKQTIPHYYLSIDVNMGEVLLVRKELNKILEGRSKISVNDFIIKASALACLKVPEANSSWMDTVIRQNHVVDVSVAVSTPAGLITPIVFNAHIKGVETIANDVVSLATKAREGKLQPHEFQGGTFTISNLGMFGIKNFSAIINPPQACILAIGASEDKLVPADNEKGFDVASMMSVTLSCDHRVVDGAVGAQWLAEFRKYLEKPITMLL
- binding [2]: binds
